No constants are given. Whether binding was seen depends on the method and setting. Some binding calls cover weakened binding; strength is not graded here.
Columns and labels:
[1] = molecular target: cynomolgus CD40 (cynomolgus monkey) (UniProt G7PG38); assay: cynomolgus cross-reactivity, summary table (Example 5)
[2] = molecular target: cynomolgus CD40 (cynomolgus monkey) (UniProt G7PG38); assay: flow cytometry on HEK cells expressing cynomolgus CD40, compared with empty vector

| binding [1] | binding [2] | Binder |
| --- | --- | --- |
| binds | binds | antibody 1132/1133 (antibody, V domains shown) VH: EVQLLESGGGLVQPGGSLRLSCAASGFTFSSYAMSWVRQAPGKGLEWVSGIGSYGGGTYYADSVKGRFTISRDNSKNTLYLQMNSLRAEDTAVYYCARYVNFGMDYWGQGTLVTVSS VL: DIQMTQSPSSLSASVGDRVTITCRASQSISSYLNWYQQKPGKAPKLLIYAASSLQSGVPSRFSGSGSGTDFTLTISSLQPEDFATYYCQQYGRNPPTFGQGTKLEIK |
| binds | binds | antibody 1150/1151 (antibody, V domains shown) VH: EVQLLESGGGLVQPGGSLRLSCAASGFTFSSYAMSWVRQAPGKGLEWVSGIGGSSSYTSYADSVKGRFTISRDNSKNTLYLQMNSLRAEDTAVYYCARYYSYHMDYWGQGTLVTVSS VL: DIQMTQSPSSLSASVGDHVTITCRASQSISSYLNWYQQKPGKAPKLLIYAASSLQSGVPSRFSGSGSGTDFTLTISSLQPEDFATYYCQQYGSAPPTFGQGTKLEIK |
